{"source": "PubChem BioAssay AID1259254 – NCATS – 2017", "aim": "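Gene knock-downs that lead to re-replication, shown by excess G2 DNA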 (primary screen)", "cells": "human HCT116 colorectal cancer cells", "knock-down reagent": "single siRNA against human genes", "timing": "3 days", "measurement": "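Imaged Hoechst DNA stain sorts each cell into a cycle phase by DNA amount; per plate, G2 fraction set to 0% for non-targeting and 100% for GMNN siRNA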", "reading the numbers": "G2 robust z-score and G2 cells, % of GMNN control: higher = more G2 cells, more excess DNA replication", "rule for the call": "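Active siRNAs have a G2 robust z of 5 or more median absolute deviations over the median, which in these data means about 38% or higher of GMNN control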", "note": "Here is one part, drawn at random, of about 59,000 reagents. About 1,550 of them (2.6%) count as active. 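G2 share is only a proxy for re-replication; each gene was hit by three separate siRNAs, and active genes were retested.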 Entries without a mark were called inactive. Reagents against one gene are numbered here. Further read-outs or replicates are left out here. No sequences are given here. The record does not give: the amount of reagent."}
{"gene":"GPC2 (GeneID 221914)","reagent no.":1,"G2 robust z-score":0.297,"G2 cells, % of GMNN control":5.06}
{"gene":"GPC2 (GeneID 221914)","reagent no.":2,"G2 robust z-score":-0.78,"G2 cells, % of GMNN control":-2.52}
{"gene":"GPC2 (GeneID 221914)","reagent no.":3,"G2 robust z-score":-0.819,"G2 cells, % of GMNN control":-2.79}
{"gene":"RHOC (GeneID 389)","reagent no.":1,"G2 robust z-score":-0.157,"G2 cells, % of GMNN control":1.86}
{"gene":"RHOC (GeneID 389)","reagent no.":2,"G2 robust z-score":1.49,"G2 cells, % of GMNN control":13.5}
{"gene":"RHOC (GeneID 389)","reagent no.":3,"G2 robust z-score":-0.906,"G2 cells, % of GMNN control":-3.41}
{"gene":"PTPN4 (GeneID 5775)","reagent no.":1,"G2 robust z-score":"6.17 (active)","G2 cells, % of GMNN control":46.3}
{"gene":"PTPN4 (GeneID 5775)","reagent no.":2,"G2 robust z-score":0.189,"G2 cells, % of GMNN control":4.29}
{"gene":"PTPN4 (GeneID 5775)","reagent no.":3,"G2 robust z-score":0.619,"G2 cells, % of GMNN control":7.33}
{"gene":"ZNF397 (GeneID 84307)","reagent no.":1,"G2 robust z-score":-0.635,"G2 cells, % of GMNN control":-1.5}
{"gene":"ZNF397 (GeneID 84307)","reagent no.":2,"G2 robust z-score":-0.918,"G2 cells, % of GMNN control":-3.49}
{"gene":"ZNF397 (GeneID 84307)","reagent no.":3,"G2 robust z-score":1.31,"G2 cells, % of GMNN control":12.2}

Look-ups from the list.
For “G2 cells, % of GMNN control”, GPC2 (GeneID 221914) #3 shows -2.79
ZNF397 (GeneID 84307) #3, G2 cells, % of GMNN control → 12.2

Further reagents:
{"gene":"NSFP1 (GeneID 728806)","reagent no.":1,"G2 robust z-score":-0.538,"G2 cells, % of GMNN control":-0.818}
{"gene":"NSFP1 (GeneID 728806)","reagent no.":2,"G2 robust z-score":-0.473,"G2 cells, % of GMNN control":-0.359}
{"gene":"NSFP1 (GeneID 728806)","reagent no.":3,"G2 robust z-score":-0.558,"G2 cells, % of GMNN control":-0.956}
{"gene":"VPS72 (GeneID 6944)","reagent no.":1,"G2 robust z-score":-0.798,"G2 cells, % of GMNN control":-2.65}
{"gene":"VPS72 (GeneID 6944)","reagent no.":2,"G2 robust z-score":0.134,"G2 cells, % of GMNN control":3.91}
{"gene":"VPS72 (GeneID 6944)","reagent no.":3,"G2 robust z-score":0.243,"G2 cells, % of GMNN control":4.68}
